From paper PMC4354016, “Centromeric binding and activity of Protein Phosphatase 4” (Nature Communications, 2015) come the findings set out here.

Sequences of proteins named here, by UniProt entry; tags and fusion partners are left off. A change or cut given only in a name is not applied to a line headed by its entry.
UniProt Q9W2U4: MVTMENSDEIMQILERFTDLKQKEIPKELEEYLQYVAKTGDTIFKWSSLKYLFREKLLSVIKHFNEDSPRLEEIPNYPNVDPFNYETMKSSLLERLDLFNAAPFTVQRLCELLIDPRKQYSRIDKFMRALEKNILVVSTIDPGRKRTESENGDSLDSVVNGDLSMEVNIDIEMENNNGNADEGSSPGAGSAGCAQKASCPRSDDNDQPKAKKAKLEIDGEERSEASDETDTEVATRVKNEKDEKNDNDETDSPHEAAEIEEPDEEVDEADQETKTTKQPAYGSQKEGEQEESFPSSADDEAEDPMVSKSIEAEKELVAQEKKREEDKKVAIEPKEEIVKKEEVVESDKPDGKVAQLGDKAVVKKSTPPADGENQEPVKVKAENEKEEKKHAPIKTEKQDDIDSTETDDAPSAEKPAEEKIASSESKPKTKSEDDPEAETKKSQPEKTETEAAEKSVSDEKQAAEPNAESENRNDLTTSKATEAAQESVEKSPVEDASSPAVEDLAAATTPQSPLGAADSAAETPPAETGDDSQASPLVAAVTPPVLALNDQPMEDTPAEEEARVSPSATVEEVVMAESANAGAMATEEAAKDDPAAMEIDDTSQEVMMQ

Like-named read-outs stand apart in the source and are kept apart here. No constants are given. Whether binding was seen depends on the method and setting. Binding seen in cells or lysates may run through a third protein. These calls come from enrichment with a bait or labelling near it, and not all partners need be listed. For part of these data: A no says only that the protein was not detected with the bait. For part of these data: Tags and fused reporters may be left off the sequences shown.

Assay [1] concerns the target Protein A::Falafel (Drosophila melanogaster) (UniProt Q9VFS5). Put plainly: affinity purification with mass spectrometry; protein A-tagged bait from ~10^9 D.Mel-2 cells, lysate in extraction buffer (50 mM HEPES pH 7.5, 0.5% NP-40), DNase I, rabbit IgG Dynabeads 2 h 4 °C, LC-MS/MS, Mascot.
For assay [2], the target named is T1, FLAG::CENP-C^ΔFIM (Drosophila melanogaster) (UniProt Q9VHP9).
T1 sequence: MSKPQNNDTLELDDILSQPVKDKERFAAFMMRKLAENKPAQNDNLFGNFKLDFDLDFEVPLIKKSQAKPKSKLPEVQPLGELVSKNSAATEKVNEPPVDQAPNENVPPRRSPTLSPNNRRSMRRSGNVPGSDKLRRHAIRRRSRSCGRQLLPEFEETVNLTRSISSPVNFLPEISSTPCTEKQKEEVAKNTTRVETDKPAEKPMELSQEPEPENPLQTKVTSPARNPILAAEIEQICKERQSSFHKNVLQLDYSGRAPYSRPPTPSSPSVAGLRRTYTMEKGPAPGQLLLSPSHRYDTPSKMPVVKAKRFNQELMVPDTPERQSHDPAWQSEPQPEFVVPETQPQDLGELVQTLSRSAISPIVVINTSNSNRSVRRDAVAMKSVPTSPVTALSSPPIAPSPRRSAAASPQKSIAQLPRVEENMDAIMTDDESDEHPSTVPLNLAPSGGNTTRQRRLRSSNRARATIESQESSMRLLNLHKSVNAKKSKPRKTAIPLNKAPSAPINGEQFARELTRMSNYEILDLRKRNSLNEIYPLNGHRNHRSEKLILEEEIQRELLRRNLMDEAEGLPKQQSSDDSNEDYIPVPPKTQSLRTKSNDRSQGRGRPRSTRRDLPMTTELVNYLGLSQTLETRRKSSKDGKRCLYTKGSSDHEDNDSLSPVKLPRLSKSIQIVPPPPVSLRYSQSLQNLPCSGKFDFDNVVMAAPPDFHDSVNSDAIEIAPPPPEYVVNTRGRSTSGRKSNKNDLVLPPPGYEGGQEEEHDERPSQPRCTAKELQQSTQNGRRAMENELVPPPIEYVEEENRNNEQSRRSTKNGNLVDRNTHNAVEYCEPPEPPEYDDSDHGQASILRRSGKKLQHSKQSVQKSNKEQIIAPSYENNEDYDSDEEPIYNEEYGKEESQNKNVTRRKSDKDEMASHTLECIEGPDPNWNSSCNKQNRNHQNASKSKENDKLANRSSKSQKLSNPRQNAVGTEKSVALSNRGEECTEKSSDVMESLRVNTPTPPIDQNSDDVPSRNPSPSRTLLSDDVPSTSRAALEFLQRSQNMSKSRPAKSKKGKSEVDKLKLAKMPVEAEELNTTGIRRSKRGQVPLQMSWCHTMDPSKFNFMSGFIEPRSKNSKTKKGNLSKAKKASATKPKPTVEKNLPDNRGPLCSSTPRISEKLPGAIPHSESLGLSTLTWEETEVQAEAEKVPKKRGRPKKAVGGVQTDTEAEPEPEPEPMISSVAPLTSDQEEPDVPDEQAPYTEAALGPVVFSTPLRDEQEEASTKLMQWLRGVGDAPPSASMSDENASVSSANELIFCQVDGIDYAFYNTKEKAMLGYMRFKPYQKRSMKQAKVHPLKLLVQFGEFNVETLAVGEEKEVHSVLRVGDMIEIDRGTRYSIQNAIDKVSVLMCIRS
Put plainly: affinity purification with mass spectrometry; FLAG::CENP-C^WT or FLAG::CENP-C^ΔFIM purified from ~10^9 stably transfected D.Mel-2 cells on anti-FLAG M2 magnetic beads; mass spectrometry.

The target of assay [3] is protein A-tagged Flfl expressed in Drosophila syncytial embryos (Drosophila melanogaster) (UniProt Q9VFS5). The experiment in a line: affinity purification with mass spectrometry; protein A-tagged bait from 1 g transgenic Drosophila syncytial embryos, extraction buffer, DNase I, rabbit IgG Dynabeads, LC-MS/MS.
Assay [4] addresses Protein A::Falafel (Drosophila melanogaster) (UniProt Q9VFS5). Put plainly: affinity purification with mass spectrometry; protein A-tagged bait from ~10^9 D.Mel-2 cells, lysate in extraction buffer (50 mM HEPES pH 7.5, 0.5% NP-40), DNase I, rabbit IgG Dynabeads 2 h 4 °C, LC-MS/MS, Mascot. This is another data set of the same source.
Assay [5] deals with T2, CENP-C::protein A (Drosophila melanogaster) (UniProt Q9VHP9).
T2 sequence: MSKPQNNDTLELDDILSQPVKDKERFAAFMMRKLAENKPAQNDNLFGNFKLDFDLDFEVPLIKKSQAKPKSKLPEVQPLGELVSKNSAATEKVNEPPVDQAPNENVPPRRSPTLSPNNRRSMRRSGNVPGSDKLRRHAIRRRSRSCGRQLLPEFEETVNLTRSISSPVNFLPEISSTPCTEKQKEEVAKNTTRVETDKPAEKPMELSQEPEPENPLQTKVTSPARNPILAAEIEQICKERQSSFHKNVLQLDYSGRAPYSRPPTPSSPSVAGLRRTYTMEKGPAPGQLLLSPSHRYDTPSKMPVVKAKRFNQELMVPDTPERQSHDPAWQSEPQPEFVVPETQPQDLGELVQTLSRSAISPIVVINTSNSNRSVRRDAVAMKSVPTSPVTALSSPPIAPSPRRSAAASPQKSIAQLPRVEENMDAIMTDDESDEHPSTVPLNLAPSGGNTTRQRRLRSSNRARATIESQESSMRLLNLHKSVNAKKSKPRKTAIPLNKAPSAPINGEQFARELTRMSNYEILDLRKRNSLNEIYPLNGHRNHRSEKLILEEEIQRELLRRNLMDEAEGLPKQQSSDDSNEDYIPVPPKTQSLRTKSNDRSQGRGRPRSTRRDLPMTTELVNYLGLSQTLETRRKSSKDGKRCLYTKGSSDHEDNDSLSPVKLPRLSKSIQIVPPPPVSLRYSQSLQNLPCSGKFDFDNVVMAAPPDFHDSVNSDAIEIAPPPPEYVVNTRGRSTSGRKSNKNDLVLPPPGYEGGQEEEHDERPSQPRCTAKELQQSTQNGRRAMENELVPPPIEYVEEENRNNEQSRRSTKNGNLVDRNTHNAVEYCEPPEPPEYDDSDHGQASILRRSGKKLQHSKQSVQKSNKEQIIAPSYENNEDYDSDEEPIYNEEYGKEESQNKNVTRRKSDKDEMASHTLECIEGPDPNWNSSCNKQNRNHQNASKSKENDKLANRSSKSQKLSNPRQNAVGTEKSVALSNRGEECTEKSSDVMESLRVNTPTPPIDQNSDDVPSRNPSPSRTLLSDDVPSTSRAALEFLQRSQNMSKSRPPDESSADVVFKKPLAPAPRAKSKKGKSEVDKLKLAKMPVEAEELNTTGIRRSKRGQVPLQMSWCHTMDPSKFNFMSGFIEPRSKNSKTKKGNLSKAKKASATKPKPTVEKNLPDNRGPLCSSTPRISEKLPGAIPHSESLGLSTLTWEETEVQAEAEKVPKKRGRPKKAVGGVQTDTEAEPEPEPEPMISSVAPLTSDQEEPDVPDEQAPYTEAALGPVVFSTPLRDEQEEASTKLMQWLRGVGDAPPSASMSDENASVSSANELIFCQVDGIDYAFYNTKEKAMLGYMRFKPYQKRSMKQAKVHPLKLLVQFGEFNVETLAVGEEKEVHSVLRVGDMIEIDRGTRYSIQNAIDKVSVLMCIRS
Described as above.

For assay [6], the target named is T3, protein A-tagged CENP-C expressed in Drosophila syncytial embryos (Drosophila melanogaster) (UniProt Q9VHP9).
T3 sequence: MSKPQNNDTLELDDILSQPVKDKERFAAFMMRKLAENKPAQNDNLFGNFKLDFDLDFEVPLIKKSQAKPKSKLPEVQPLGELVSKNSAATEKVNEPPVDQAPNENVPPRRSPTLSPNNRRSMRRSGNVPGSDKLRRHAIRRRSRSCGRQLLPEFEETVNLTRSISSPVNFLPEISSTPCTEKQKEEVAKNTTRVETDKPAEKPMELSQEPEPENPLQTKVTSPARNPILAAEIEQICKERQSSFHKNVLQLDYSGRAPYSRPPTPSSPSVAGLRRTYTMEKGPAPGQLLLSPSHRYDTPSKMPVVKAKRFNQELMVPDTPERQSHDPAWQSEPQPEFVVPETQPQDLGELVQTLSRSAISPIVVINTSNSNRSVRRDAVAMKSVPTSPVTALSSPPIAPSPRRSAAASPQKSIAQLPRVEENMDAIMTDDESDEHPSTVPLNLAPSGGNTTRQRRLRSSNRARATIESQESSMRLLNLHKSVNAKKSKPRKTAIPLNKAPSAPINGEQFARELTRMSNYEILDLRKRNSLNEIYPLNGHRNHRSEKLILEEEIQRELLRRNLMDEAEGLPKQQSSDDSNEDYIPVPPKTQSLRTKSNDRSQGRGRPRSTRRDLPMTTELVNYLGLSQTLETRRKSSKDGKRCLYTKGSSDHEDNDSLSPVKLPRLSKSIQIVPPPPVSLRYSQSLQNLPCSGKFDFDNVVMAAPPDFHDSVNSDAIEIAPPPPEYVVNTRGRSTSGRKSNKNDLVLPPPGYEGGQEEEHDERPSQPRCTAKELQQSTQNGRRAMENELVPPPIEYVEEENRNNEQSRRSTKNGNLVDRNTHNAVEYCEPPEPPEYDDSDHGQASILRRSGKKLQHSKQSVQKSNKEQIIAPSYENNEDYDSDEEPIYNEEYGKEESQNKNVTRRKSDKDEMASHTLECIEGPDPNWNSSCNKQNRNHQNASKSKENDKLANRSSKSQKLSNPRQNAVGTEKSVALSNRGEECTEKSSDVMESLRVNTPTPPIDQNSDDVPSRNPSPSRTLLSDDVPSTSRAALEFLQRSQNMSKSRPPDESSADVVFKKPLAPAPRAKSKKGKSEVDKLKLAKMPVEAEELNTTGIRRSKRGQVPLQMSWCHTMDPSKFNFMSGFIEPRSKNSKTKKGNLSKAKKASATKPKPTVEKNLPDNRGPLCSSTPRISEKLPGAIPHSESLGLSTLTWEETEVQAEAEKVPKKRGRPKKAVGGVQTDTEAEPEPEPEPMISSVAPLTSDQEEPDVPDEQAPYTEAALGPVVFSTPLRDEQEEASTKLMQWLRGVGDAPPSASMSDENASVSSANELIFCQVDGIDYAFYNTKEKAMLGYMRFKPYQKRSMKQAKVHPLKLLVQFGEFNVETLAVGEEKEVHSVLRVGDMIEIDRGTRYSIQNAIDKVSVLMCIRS
Put plainly: affinity purification with mass spectrometry; protein A-tagged bait from 1 g transgenic Drosophila syncytial embryos, extraction buffer, DNase I, rabbit IgG Dynabeads, LC-MS/MS.

For R2, endogenous (from UniProt Q9W2U4), the binding result in assay [1] was “binds”; in assay [2], “no binding”; in assay [3], “binds”.

B1: PP4c, endogenous (enzyme, UniProt O76932 1-307)
chain: MSDYSDLDRQIEQLKRCEIIKENEVKALCAKAREILVEEGNVQRVDSPVTVCGDIHGQFYDLKELFKVGGDVPEKNYLFMGDFVDRGYYSVETFLLLLALKVRYPDRITLIRGNHESRQITQVYGFYDECLRKYGSTAVWRYCTEIFDYLSLSAIIDGKIFCVHGGLSPSIQYLDQIRSIDRKQEVPHDGPMCDLLWSDPEDQTGWGVSPRGAGYLFGSDVVSQFNRTNDIDMICRAHQLVMEGFKWHFNETVLTVWSAPNYCYRCGNVAAILELNEYLHRDFVIFEAAPQESRGIPSKKPQADYFL
On to B1, for which the binding result in assay [4] is “binds”; in assay [2] it was “no binding”; in assay [3], “binds”.

B2: Falafel (Flfl), endogenous (protein, UniProt Q9VFS5 1-980)
chain: MTTDTRRRVKLYALNAERQWDDRGTGHVSSTYVERLKGISLLVRAESDGSLLLESKIQPDTAYQKQQDTLIVWSEGDNFDLALSFQEKAGCDEIWEKICQVQGKDPSVEITQDIVEESEDERFEDMSDTAPPIELPPCELSRLEDISETIQSCLSTPLRKEKLSMALESESYIKKLLNLFHVCEDLDNTEGLHHLFEIFKNIFLLNKNALFEIMFADDTIFDVVGCLEYDPSVSQPKKHRQYLKQLAKFREAVPIKNLDLLAKIHQTFRVQYIQDIILPTPSVFVEDNMLNTLSSFIFFNKVEIVTMIQDDERYLLDVFAVLTDPTTGDAKRRDTVLFLKEFCNYAQNLQPQGKDSFYKTLTCLGILQALELTLVMNDKKTKSASIDILTAIVEFSPLVVRNYTLNQANRPEVERMLLNIAIEQMLNDSEPELGIAVQLMGIVKILLEPENMLTEKGDFLNFFYKYSVQTLVAPVILNTIGDRPQNEDYQTAQLLGIVLDILSFCVEHHSYHIKNFLLQKDLLKRILVLMKSTHTFLVLGALRLLRKIIALKDEFYNRHIVKCNLFAPVVDAFIRNNGRYNLLESAILELFEFIKLEDIRTLCVYFVENFSKIFDEIEYVQTFKYLKNRYDQYQDRLKDRDKMENRTDGGLPIIRSGGRFRRDQRQMEEEEEMWFNEEDDFTEEIDTYNNVMKSVSEKNGPQTQNQQKSSPPHSTSPHSGLLGSLSTTASSTATSATSGAPVASGSSSPEAISADEQTQAAVHLAAAALQHHQQQQQQQQQNPFQQQTQPEIAELQQQLSSVEAPQSQELELSQSAAASASPTSSSSSLEASTSSSSASSSSSSSSSSSPPGSSAAASLCDSATVAAVAASQFLSTIATAMAASVTAAAATNSSPSISPAPAVSSPDIENADAQLPPSDDASSPASGEQDANSTEGTSSEADKTTAKKGLVDYESDSGEDDYEEDEYSEGPQAQKRARQA
For B2, the figures for the binding entry in assay [5], in assay [2] and in assay [6] were “binds”, “no binding” and “binds”, respectively.
